Measured values published in ChEMBL document CHEMBL2424610, “Design, synthesis, and evaluation of 4-(substituted)phenyl-2-thioxo-3,4-dihydro-1H-chromino[4,3-d]pyrimidin-5-one and 4-(substituted)phenyl-3,4-dihydro-1H-chromino[4,3-d]pyrimidine-2,5-dione analogs as antitubercular agents” (Med Chem Res, 2013).
≈ marks a conversion by molar mass, not a printed value.

Key:
[1] = tested on: Mycobacterium tuberculosis; assay: Antitubercular activity against Mycobacterium tuberculosis H37Rv ATCC 27294 assessed as growth inhibition by luminescence-based low oxygen-recovery assay; type: functional
[2] = tested on: Mycobacterium tuberculosis; assay: microbe, parasite or virus in culture; conditions: H37Rv ATCC 27294, 96 h

CO[C@H]1/C=C/O[C@@]2(C)Oc3c(C)c(O)c4c(O)c(c(/C=N/N5CCN(C)CC5)c(O)c4c3C2=O)NC(=O)/C(C)=C\C=C\[C@H](C)[C@H](O)[C@@H](C)[C@@H](O)[C@@H](C)[C@H](OC(C)=O)[C@@H]1C [RIFAMPIN]
MIC [1]: 3.8 µM (≈ 3.13 µg/mL)
MIC [2]: 0.1 µM (≈ 0.0823 µg/mL)
